Compound in the experiment: [O-][N+](C(C1=C(C(O)=C2)NC(C(C=C3)=CC=C3Cl)C4C1C=CC4)=C2Cl)=O
The experiment is described as follows: melting temperature shift (compound 7 minus DMSO); higher = compound stabilises the protein. To be noted: 10 µM. On the procedure:
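Thermal proteome profiling (TMT mass spectrometry) in intact DAOY medulloblastoma cells or DAOY lysates treated with 10 µM compound 7 or DMSO, heated at 10 temperatures from 40.5 to 73.8 °C for 3 min. Melting curves were fitted with the Bioconductor TPP package, and the melting point difference between compound and vehicle is reported per protein (single curve per condition).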

Sequences of proteins named here, by UniProt entry; tags and fusion partners are left off. A change or cut given only in a name is not applied to a line headed by its entry.
UniProt P14543: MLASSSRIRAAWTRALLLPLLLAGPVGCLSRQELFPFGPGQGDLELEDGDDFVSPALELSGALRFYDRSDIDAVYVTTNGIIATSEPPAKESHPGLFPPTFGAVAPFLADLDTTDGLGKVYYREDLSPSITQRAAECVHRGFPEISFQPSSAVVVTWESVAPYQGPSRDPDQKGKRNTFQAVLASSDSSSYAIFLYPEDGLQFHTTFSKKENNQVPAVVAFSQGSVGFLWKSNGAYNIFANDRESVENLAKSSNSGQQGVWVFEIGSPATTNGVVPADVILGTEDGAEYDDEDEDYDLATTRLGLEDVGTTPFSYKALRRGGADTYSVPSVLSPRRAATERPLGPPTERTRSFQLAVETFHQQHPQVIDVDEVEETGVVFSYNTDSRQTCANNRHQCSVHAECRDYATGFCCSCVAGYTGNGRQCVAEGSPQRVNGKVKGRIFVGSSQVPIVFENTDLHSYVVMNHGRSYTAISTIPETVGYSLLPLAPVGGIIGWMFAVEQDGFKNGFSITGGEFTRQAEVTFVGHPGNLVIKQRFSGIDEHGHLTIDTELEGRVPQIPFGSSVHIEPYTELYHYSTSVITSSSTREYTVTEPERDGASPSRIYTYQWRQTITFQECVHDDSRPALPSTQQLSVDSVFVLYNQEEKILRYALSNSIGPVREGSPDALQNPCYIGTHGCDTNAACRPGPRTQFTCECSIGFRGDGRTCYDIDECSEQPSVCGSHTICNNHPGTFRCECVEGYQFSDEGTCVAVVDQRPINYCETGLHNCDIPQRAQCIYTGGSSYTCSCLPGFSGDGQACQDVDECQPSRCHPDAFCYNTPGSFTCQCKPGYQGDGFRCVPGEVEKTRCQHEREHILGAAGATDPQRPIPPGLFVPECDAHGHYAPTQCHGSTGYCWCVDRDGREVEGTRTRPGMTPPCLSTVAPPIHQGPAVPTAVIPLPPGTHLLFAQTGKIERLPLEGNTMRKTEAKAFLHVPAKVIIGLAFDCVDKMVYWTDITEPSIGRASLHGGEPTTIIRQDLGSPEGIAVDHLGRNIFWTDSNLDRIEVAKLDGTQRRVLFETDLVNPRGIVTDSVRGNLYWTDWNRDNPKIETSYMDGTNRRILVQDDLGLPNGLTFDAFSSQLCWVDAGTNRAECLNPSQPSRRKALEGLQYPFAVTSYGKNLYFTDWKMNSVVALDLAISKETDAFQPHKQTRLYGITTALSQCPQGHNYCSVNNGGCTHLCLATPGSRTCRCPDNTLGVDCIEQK
UniProt Q9BPX7: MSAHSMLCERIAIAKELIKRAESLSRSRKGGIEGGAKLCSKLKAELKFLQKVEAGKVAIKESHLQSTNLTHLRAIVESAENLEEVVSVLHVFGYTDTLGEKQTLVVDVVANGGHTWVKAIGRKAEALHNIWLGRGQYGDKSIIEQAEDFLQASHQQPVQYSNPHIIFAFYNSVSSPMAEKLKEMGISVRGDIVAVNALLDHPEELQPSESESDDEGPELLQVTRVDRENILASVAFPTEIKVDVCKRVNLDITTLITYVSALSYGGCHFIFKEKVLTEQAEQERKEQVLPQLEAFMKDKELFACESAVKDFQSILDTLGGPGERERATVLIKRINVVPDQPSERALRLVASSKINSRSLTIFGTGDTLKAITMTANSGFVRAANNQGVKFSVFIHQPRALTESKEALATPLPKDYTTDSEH
UniProt Q9H479: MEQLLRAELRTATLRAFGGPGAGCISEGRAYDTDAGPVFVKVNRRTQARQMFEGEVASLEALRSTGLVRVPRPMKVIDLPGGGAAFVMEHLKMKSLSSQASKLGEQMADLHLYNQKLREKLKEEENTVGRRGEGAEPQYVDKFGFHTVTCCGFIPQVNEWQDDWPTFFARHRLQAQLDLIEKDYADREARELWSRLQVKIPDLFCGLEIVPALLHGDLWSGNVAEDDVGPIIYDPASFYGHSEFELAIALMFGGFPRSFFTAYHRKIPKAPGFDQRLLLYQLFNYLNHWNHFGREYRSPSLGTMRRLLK
UniProt P16220: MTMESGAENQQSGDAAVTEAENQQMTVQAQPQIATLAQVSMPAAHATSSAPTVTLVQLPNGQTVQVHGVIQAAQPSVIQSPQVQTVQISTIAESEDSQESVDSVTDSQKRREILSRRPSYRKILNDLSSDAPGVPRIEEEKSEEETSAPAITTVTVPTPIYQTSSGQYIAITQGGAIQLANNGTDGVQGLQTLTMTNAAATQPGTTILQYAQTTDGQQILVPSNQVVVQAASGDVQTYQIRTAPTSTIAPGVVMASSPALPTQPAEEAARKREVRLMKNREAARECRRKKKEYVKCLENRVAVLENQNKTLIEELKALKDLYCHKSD
UniProt Q8TF05: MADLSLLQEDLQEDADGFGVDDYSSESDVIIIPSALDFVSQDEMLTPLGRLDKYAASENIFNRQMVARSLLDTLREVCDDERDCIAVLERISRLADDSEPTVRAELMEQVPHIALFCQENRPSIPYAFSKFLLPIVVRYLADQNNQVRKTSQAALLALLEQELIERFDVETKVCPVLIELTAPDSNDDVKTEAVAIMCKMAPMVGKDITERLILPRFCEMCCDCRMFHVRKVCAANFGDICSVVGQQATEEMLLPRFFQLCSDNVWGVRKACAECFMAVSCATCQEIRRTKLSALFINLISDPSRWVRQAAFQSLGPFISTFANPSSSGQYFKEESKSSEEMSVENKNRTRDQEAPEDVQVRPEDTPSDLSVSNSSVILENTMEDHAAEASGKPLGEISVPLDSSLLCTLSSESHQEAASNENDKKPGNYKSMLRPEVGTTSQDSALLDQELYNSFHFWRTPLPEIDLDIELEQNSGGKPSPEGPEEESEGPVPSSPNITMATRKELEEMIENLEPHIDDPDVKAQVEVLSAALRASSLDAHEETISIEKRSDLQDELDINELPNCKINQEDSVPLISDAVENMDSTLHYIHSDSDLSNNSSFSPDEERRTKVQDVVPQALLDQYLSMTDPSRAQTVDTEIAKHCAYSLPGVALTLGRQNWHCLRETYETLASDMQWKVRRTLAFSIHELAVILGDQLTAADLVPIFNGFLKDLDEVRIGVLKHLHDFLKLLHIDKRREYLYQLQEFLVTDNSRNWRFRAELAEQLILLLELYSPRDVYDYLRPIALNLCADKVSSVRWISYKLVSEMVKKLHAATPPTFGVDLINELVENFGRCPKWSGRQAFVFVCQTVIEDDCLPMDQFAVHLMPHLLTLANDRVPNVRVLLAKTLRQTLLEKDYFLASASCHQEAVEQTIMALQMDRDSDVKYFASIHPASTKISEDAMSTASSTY
UniProt O75132: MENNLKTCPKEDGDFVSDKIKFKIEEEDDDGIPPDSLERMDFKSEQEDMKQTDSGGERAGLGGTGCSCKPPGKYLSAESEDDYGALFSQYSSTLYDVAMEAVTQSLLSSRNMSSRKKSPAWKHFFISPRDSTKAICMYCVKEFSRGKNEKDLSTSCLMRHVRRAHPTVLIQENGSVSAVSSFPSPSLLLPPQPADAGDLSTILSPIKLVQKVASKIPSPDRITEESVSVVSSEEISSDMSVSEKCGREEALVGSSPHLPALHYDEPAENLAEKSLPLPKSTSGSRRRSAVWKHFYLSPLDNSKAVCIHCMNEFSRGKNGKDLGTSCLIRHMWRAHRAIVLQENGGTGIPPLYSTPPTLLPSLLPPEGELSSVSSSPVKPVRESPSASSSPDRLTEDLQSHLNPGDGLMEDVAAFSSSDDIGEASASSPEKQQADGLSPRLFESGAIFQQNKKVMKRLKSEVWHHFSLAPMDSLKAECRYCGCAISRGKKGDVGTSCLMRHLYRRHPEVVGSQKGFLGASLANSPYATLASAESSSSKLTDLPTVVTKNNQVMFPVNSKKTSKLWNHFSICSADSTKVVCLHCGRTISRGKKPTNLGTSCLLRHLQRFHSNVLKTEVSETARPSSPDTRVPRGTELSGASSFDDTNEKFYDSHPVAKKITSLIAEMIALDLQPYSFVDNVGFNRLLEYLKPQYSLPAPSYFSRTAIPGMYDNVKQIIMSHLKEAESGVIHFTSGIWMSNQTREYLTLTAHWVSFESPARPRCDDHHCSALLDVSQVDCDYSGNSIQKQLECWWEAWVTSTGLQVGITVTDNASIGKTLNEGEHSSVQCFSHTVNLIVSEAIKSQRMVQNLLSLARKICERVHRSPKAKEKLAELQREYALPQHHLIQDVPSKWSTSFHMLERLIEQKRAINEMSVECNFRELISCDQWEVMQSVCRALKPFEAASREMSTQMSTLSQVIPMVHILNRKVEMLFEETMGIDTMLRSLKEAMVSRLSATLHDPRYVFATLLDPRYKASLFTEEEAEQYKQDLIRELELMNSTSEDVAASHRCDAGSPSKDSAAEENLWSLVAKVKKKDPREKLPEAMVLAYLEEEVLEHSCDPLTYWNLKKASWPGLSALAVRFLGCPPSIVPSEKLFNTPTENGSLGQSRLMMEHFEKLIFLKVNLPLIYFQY
UniProt P32121, whole entry: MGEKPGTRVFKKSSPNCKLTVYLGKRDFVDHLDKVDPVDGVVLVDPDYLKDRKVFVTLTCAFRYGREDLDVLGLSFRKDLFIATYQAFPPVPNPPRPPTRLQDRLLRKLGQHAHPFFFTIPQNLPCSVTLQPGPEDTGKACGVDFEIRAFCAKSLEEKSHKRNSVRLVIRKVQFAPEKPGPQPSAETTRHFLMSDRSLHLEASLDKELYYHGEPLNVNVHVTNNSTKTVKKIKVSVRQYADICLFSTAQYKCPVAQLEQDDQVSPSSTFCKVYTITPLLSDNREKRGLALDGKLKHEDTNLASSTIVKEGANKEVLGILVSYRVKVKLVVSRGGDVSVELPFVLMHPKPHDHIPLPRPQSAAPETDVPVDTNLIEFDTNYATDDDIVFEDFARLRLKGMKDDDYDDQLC
UniProt P25774, whole entry, looked up: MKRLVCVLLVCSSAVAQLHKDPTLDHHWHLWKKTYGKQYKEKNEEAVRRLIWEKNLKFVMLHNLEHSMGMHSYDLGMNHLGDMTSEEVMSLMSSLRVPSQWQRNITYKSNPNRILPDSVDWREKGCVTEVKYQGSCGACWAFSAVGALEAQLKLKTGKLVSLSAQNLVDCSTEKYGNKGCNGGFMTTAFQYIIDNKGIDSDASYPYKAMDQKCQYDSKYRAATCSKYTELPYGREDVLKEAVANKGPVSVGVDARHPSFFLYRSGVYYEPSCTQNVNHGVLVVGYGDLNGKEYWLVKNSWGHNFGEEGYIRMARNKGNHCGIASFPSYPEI
UniProt P19022: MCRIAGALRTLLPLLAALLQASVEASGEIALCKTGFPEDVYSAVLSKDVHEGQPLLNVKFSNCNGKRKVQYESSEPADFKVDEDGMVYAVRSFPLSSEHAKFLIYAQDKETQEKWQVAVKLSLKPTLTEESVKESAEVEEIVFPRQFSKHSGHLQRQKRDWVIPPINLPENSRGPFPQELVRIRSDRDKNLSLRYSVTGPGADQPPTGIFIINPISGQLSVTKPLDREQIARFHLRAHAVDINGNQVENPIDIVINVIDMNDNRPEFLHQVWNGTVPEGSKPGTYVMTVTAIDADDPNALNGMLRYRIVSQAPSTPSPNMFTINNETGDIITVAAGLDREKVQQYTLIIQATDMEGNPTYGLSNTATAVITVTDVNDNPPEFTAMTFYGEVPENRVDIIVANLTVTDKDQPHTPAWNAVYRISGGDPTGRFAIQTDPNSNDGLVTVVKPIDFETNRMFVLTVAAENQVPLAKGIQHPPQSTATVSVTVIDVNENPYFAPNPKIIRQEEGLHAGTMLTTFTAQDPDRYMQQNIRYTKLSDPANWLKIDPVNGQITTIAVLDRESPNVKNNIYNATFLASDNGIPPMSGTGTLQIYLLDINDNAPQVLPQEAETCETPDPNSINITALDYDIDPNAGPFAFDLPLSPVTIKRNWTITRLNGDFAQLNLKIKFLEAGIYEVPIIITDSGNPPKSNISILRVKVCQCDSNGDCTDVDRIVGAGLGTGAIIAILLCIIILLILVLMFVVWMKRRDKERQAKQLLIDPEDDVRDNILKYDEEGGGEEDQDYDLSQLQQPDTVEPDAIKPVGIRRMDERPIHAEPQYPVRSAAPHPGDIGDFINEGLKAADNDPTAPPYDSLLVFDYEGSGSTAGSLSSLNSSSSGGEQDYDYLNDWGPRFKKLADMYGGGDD
UniProt Q9HA47: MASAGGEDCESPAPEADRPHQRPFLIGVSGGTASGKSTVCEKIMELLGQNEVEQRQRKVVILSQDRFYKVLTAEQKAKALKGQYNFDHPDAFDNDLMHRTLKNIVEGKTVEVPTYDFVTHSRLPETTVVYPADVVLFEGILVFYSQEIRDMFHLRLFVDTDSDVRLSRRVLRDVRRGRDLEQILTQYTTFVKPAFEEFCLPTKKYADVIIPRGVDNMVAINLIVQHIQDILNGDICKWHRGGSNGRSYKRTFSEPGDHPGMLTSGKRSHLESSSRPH
UniProt Q567V2: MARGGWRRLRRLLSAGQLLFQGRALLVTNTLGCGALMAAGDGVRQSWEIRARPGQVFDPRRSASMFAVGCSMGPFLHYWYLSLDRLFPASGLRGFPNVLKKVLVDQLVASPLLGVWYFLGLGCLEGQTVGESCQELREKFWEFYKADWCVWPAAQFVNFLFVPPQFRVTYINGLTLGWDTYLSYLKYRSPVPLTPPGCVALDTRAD

Setting [1] is: system: DAOY cell lysate, treatment time: 20 min, 4 °C.
The mark [2] stands for this setting: system: intact DAOY cells, treatment time: 90 min, 37 °C.

Repeats are few or missing, and single values can be far off.

For the target UniProt Q9P0V9, the melting temperature shift is, setting by setting: under setting [1], -0.643 °C; under setting [2], 0.289 °C. Regarding COPZ1 (UniProt P61923), the melting temperature shift is -0.909 °C under setting [1] and 0.602 °C under setting [2]. Take PUS1 (UniProt Q9Y606): the melting temperature shift was -0.689 °C under setting [1] and -0.345 °C under setting [2].

Regarding UniProt P14543, the melting temperature shift under setting [2] was 3.07 °C. Regarding DNAJC16 (UniProt Q9Y2G8), under setting [1], the melting temperature shift stood at 1.27 °C. On to UniProt P29803, for which, under setting [2], the melting temperature shift is -0.703 °C. On to UniProt Q9BPX7, for which the melting temperature shift is, setting by setting: under setting [1], -1.18 °C; under setting [2], 1.76 °C.

For UniProt Q9H479, the melting temperature shift reads like this: under setting [1], 2.67 °C; under setting [2], -7.98 °C. IKBKG (UniProt Q9Y6K9): the melting temperature shift under setting [1] was -4.66 °C. Regarding UQCRC1 (UniProt P31930), the melting temperature shift reads like this: under setting [1], 2.29 °C; under setting [2], 0.823 °C. As for CEP97 (UniProt Q8IW35), the melting temperature shift under setting [1] was -0.495 °C. Consider UniProt P16220, for which the melting temperature shift under setting [1] is -0.319 °C. As for GPATCH4 (UniProt Q5T3I0), the melting temperature shift under setting [1] stood at 0.102 °C. For RPP40 (UniProt O75818), the melting temperature shift is -1.12 °C under setting [1] and -1.88 °C under setting [2]. The corresponding values for TAF7 (UniProt Q15545) are -1.84 °C and 0.22 °C.

Turning to UniProt Q96L91, the melting temperature shift under setting [1] is -0.149 °C and the melting temperature shift under setting [2] is 0.00772 °C. The corresponding values for PPP4R1 (UniProt Q8TF05) are -1.12 °C and 0.0915 °C. As for UniProt O75132, under setting [1], the melting temperature shift is 2.14 °C. For FBXO30 (UniProt Q8TB52), the melting temperature shift under setting [1] stood at 1.1 °C and the melting temperature shift under setting [2] is 0.372 °C. As for ARRB2 (UniProt P32121), the melting temperature shift under setting [1] was -0.242 °C and the melting temperature shift under setting [2] was found to be 2.98 °C. DDHD1 (UniProt Q8NEL9): the melting temperature shift is, setting by setting: under setting [1], 0.367 °C; under setting [2], -0.699 °C. In the case of UniProt P25774, the melting temperature shift under setting [1] is 1.49 °C and the melting temperature shift under setting [2] was -1.8 °C. In the case of ASUN (UniProt Q9NVM9), the melting temperature shift under setting [1] is -0.0802 °C and the melting temperature shift under setting [2] was determined as 0.399 °C. The matching figures for TOMM70 (UniProt O94826): 0.761 °C and -0.331 °C. For the target TATDN1 (UniProt Q6P1N9), the melting temperature shift under setting [1] is -0.556 °C and the melting temperature shift under setting [2] was -0.162 °C.

As to GPN3 (UniProt Q9UHW5), the melting temperature shift under setting [1] is -0.163 °C and the melting temperature shift under setting [2] was -2.75 °C. The matching figures for CYTH1 (UniProt Q15438): -2.64 °C and 0.754 °C. For UniProt P19022, the melting temperature shift under setting [1] came to 0.786 °C. Consider UniProt Q14964, for which the melting temperature shift under setting [2] is -1.58 °C. Turning to UCK1 (UniProt Q9HA47), the melting temperature shift under setting [2] was found to be 1.81 °C.

Take DAZAP1 (UniProt Q96EP5): the melting temperature shift reads like this: under setting [1], 0.436 °C; under setting [2], 0.482 °C. Turning to SLC35E1 (UniProt Q96K37), the melting temperature shift by setting is: under setting [1], -1.26 °C; under setting [2], -2.51 °C.

Take CLCC1 (UniProt Q96S66): the melting temperature shift by setting is: under setting [1], 1.55 °C; under setting [2], 0.424 °C. For the target PCM1 (UniProt Q15154), the melting temperature shift by setting is: under setting [1], -0.412 °C; under setting [2], -0.212 °C. In the case of UniProt Q7RTW8, the melting temperature shift under setting [2] is -0.617 °C. On to UniProt P19086, for which the melting temperature shift under setting [2] came out at 2.97 °C. On to RPTOR (UniProt Q8N122), for which the melting temperature shift under setting [1] was -1.2 °C. As for CUL1 (UniProt Q13616), the melting temperature shift is, setting by setting: under setting [1], -1.23 °C; under setting [2], -0.618 °C. As for UniProt Q567V2, the melting temperature shift under setting [1] amounted to 0.436 °C.
